Data from article PMC10400277.
These are yes or no findings as the source states them, for the method shown. Some binding calls cover weakened binding; strength is not graded here. Tags and fused reporters may be left off the sequences shown.

Molecular target: T1, N-terminus of MSL10 (amino acids 1-164), C-terminally His-tagged (Arabidopsis thaliana), Q9LYG9
T1 chain: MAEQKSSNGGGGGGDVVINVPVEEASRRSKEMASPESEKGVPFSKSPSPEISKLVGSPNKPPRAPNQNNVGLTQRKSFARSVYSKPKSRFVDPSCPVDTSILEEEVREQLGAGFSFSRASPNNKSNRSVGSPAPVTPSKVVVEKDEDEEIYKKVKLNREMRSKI
Assay: circular dichroism; far-UV CD of His-tagged MSL10^N alone with 10-40% PEG 400 (a separate aliquot for each percentage); 20 °C; 20 mM sodium phosphate pH 7.4; .1-.3 mg/mL protein; self-association inferred from flattening and shift of the spectrum; both purified
Details: remark: other sources report otherwise

binding: binds
B1: N-terminus of MSL10 (amino acids 1-164), C-terminally His-tagged, Q9LYG9 1-164 (domain or fragment)
chain: T1 chain
